{"source": "patent US20130071854A1", "about": "“METHODS FOR THE IDENTIFICATION AND CHARACTERIZATION OF HDAC INTERACTING COMPOUNDS” (priority 2009, published 2013)", "key": {"[1]": {"tested_on": "MIER3", "test": "Chemoproteomic binding profiling, K562 cell extract, SAHA/ITF2357 probe matrix (Kd app), ELSA (ELM-SANT) domain protein", "design": "species or system human", "conditions": "ELSA (ELM-SANT) domain proteins"}, "[2]": {"tested_on": "EHMT2", "test": "Chemoproteomic binding profiling, K562 cell extract, SAHA/ITF2357 probe matrix (Kd app), ELSA (ELM-SANT) domain proteins group", "design": "species or system human", "conditions": "protein EHMT2"}, "[3]": {"tested_on": "TBL1X", "conditions": "K-562 cell lysate"}, "[4]": {"tested_on": "MIER1", "test": "Chemoproteomic binding profiling, K562 cell extract, SAHA/ITF2357 probe matrix (Kd app), ELSA (ELM-SANT) domain protein", "design": "species or system human", "conditions": "ELSA (ELM-SANT) domain proteins"}, "[5]": {"tested_on": "TBL1XR1"}}, "note": "Like-named read-outs stand apart in the source and are kept apart here."}
{"smiles": "O=C(CCCCCCC(=O)Nc1ccccc1)NO", "note": "[SAHA, suberoylanilide hydroxamic acid]", "values": [{"measurement": "Kd", "setting": "[1]", "value": 50, "unit": "nM"}, {"measurement": "Kd", "setting": "[2]", "value": 540, "unit": "nM"}, {"measurement": "IC50", "setting": "[3]", "value": 290, "unit": "nM"}, {"measurement": "Kd", "setting": "[4]", "value": 110, "unit": "nM"}, {"measurement": "IC50", "setting": "[5]; K-562 cell lysate", "value": 290, "unit": "nM"}, {"measurement": "IC50", "setting": "[5]; mix of Jurkat and Ramos cell lysates", "value": 220, "unit": "nM"}]}
